This is one part of the list.
What was measured:
Experiment in all cases: log2 fold change, soluble protein after heating vs DMSO (PISA); higher = thermal stabilisation; K562 lysate, 10 uM; active = over 0.2 and 3.5 SD of the protein, either way, in both replicates (recomputed)
nilotinib = compound: Cc1cn(-c2cc(NC(=O)c3ccc(C)c(Nc4nccc(-c5cccnc5)n4)c3)cc(C(F)(F)F)c2)cn1 [nilotinib]
In short: (§1)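 Values give the log-two fold change in thermal stability against solvent controls, from duplicates. Crude K562 extract at 1 mg/mL protein, made by dounce homogenisation in PBS pH 7.4 with 1 mM MgCl2, was treated with 10 μM compound for 30 min. After 3 min heating across 48°C-58°C, aliquots were pooled, adjusted to 0.5% NP-40 at 4°C and centrifuged at 21,000xg for 90 min. The supernatant was measured by TMTpro 16plex LC-MS/MS with channel sums equalised.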

By UniProt entry, the sequences of proteins in these tests, tags left out. Where a name states a change or a piece, a line headed by the entry shows the natural chain unless it says otherwise.
UniProt P01876, whole entry, looked up: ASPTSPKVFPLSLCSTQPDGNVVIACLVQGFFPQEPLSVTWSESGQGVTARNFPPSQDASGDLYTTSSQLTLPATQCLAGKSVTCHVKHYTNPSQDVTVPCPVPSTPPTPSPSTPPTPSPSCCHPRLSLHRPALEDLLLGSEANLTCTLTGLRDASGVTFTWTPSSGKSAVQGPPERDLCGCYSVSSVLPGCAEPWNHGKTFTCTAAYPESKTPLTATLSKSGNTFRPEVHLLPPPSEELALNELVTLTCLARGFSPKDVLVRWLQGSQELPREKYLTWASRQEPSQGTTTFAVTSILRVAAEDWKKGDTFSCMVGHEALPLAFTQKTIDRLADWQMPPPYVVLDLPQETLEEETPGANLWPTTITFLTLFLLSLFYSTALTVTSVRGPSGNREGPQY
UniProt Q659A1: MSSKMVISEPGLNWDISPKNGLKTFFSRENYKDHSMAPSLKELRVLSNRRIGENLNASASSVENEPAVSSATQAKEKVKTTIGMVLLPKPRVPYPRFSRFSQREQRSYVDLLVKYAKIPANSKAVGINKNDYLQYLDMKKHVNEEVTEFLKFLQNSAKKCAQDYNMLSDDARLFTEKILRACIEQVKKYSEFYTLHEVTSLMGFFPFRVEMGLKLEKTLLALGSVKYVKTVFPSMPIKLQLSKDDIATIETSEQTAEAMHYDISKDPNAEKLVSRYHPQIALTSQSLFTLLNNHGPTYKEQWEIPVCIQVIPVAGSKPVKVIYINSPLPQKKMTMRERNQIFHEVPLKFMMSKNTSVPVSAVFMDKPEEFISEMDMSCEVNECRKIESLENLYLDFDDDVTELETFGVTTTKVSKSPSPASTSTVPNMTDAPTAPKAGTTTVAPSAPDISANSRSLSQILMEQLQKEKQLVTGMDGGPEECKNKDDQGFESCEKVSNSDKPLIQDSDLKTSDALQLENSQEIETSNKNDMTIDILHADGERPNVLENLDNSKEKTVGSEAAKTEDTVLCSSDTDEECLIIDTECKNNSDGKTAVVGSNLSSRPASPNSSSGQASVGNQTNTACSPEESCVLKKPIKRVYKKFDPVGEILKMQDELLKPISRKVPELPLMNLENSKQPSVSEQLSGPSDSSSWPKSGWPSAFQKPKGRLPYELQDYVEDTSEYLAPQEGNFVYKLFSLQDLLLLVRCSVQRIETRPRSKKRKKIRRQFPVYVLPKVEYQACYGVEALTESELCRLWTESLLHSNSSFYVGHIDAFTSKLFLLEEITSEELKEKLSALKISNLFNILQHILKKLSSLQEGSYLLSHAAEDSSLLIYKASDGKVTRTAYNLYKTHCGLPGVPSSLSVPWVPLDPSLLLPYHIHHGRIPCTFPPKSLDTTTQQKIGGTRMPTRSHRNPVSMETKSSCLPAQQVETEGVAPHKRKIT
UniProt Q8WYH8, whole entry, looked up: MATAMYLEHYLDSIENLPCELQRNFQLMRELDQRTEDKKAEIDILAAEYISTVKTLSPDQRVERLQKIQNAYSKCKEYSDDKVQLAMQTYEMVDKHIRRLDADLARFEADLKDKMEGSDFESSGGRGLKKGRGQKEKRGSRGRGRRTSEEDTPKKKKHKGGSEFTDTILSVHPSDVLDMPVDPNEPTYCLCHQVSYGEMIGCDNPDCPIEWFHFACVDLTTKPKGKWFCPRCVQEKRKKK
UniProt Q9Y366: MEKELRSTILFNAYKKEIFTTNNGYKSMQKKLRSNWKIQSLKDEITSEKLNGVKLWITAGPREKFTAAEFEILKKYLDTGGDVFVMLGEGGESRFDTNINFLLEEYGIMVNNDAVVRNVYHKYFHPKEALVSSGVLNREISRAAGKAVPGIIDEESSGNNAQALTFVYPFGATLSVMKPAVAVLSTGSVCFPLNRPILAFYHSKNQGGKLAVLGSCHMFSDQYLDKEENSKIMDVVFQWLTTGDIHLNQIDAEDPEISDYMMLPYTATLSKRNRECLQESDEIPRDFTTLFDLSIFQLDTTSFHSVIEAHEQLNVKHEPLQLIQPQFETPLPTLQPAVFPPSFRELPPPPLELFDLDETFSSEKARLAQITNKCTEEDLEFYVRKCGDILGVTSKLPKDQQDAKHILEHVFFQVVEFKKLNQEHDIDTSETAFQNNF
UniProt Q12906, whole entry, looked up: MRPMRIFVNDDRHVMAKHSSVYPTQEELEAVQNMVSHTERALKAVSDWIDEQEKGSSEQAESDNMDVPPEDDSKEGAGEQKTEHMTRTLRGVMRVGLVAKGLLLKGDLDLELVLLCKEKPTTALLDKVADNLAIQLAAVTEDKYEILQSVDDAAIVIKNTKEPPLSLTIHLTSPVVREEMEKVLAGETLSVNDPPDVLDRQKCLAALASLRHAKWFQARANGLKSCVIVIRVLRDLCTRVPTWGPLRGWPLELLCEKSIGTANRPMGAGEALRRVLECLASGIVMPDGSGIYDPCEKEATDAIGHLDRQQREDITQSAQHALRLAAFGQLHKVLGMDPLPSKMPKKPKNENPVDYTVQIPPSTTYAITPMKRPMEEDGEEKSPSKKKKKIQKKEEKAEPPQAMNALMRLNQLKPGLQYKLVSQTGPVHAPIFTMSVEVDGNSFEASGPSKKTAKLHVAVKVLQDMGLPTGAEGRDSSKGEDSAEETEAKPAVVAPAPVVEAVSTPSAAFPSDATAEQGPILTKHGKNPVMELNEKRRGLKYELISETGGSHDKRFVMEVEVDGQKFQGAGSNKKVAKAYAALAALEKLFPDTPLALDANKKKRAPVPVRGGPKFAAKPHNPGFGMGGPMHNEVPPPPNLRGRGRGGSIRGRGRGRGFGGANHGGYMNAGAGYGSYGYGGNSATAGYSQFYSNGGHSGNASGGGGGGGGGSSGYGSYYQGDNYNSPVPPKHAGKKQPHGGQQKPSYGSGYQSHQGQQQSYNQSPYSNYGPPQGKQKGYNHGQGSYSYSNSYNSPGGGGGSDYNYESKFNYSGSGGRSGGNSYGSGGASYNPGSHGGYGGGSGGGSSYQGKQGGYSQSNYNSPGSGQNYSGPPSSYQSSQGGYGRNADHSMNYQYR
IGKV3D-7, A0A0C4DH55, UniProt A0A0C4DH55, whole entry, looked up: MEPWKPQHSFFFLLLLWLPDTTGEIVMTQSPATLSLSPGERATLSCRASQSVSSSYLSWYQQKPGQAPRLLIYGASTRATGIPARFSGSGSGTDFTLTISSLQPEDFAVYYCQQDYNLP
UniProt P17181: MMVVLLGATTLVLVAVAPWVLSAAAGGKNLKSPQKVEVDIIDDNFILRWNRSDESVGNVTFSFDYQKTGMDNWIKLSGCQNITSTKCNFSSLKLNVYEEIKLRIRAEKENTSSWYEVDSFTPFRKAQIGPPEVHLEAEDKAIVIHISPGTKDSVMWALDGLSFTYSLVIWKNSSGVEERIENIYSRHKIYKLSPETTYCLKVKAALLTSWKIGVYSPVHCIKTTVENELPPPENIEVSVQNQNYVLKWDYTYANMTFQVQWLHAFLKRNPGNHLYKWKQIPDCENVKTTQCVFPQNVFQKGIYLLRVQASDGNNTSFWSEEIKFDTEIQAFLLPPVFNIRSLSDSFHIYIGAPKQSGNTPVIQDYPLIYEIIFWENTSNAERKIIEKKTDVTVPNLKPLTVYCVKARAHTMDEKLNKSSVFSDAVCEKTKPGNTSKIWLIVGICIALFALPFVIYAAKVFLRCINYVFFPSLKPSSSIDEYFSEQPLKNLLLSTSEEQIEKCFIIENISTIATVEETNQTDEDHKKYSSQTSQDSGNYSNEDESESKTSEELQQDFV
UniProt Q9Y5U9: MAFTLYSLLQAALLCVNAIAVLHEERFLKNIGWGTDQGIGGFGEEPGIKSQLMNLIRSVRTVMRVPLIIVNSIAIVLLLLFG
UniProt Q9NRR6: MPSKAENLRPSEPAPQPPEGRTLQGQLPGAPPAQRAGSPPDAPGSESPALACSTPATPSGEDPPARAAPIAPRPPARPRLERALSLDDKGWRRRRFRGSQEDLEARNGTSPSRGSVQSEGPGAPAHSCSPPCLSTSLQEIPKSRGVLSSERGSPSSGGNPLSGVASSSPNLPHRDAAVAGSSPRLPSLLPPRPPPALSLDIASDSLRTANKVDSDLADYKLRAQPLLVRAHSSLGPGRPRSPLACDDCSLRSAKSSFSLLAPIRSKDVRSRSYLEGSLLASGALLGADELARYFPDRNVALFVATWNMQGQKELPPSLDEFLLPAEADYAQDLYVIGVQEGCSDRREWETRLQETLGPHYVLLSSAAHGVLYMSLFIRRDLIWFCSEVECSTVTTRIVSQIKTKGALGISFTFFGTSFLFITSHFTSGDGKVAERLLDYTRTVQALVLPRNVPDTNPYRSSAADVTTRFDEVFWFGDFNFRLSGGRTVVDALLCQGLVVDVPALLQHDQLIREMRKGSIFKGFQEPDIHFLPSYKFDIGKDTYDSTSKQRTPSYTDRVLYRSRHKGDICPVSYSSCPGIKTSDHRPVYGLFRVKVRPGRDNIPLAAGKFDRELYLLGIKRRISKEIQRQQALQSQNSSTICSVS
UniProt Q9Y2H2: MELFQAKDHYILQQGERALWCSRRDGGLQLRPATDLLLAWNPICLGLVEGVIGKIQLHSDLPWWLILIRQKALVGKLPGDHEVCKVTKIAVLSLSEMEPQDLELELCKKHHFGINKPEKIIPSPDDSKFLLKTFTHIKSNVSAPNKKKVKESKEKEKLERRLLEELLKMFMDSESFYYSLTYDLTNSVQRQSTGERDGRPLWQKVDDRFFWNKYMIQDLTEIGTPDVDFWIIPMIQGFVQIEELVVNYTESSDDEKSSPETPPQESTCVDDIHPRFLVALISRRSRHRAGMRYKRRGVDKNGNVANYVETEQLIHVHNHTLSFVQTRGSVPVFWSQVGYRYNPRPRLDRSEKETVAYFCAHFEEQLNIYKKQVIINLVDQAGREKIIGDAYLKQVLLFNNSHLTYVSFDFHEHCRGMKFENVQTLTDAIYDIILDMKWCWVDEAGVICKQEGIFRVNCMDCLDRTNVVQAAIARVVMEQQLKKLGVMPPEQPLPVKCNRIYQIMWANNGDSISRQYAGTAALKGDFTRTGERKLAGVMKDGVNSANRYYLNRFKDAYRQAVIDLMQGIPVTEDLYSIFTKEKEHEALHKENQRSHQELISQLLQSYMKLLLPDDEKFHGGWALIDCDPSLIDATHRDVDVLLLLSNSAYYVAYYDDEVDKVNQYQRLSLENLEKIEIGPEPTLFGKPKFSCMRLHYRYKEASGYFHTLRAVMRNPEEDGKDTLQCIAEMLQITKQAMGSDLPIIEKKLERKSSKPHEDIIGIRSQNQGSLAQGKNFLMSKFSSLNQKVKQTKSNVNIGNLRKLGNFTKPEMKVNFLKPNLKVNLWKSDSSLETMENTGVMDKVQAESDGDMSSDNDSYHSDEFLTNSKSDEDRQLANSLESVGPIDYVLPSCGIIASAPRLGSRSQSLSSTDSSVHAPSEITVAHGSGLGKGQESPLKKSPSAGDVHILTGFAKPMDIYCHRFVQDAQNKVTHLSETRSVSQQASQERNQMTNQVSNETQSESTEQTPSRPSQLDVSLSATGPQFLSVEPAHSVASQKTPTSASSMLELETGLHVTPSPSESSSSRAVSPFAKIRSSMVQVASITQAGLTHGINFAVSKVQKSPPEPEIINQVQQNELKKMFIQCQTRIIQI
UniProt Q9NQC8: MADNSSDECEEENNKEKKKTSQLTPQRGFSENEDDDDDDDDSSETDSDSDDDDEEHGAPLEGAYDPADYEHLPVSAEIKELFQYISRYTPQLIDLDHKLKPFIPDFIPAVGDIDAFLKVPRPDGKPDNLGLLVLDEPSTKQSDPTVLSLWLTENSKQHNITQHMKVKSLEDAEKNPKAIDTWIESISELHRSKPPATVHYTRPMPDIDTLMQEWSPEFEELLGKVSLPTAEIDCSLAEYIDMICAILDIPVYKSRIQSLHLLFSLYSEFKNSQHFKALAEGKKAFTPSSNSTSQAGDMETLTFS
UniProt P83110, whole entry, looked up: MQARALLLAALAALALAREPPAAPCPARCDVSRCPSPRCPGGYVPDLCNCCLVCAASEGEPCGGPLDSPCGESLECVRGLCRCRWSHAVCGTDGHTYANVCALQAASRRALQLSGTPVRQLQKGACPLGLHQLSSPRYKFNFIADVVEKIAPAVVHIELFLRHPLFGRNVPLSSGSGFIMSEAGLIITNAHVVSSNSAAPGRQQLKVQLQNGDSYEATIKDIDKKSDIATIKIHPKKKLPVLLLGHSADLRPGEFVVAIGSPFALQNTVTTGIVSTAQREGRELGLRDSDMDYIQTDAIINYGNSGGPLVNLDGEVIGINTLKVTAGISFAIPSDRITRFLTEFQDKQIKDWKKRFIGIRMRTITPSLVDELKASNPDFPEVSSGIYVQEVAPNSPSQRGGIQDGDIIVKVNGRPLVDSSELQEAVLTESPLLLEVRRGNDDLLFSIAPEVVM
UniProt O14732: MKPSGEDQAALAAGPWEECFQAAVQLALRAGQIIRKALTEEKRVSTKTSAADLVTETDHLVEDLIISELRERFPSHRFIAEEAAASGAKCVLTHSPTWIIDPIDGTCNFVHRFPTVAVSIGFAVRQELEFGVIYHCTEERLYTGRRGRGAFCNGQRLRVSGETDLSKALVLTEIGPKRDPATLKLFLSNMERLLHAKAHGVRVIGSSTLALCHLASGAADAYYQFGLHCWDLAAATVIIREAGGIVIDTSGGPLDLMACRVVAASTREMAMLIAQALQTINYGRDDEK

[1] = compound: Cc1nc(Nc2n[nH]c3c2CN(C(=O)N[C@H](CN(C)C)c2ccccc2)C3(C)C)c2sccc2n1
In short: as §1

dasatinib = compound: Cc1nc(Nc2ncc(C(=O)Nc3c(C)cccc3Cl)s2)cc(N2CCN(CCO)CC2)n1 [dasatinib]
In short: as §1

[2] = compound: Cc1ncc(-c2ccnc(Nc3ccc(S(C)(=O)=O)cc3)n2)n1C(C)C
In short: as §1

[3] = compound: Cn1cc(-c2ccc3c(c2)CCN3C(=O)Cc2cccc(C(F)(F)F)c2)c2c(N)ncnc21
In short: as §1

quisinostat = compound: Cn1cc(CNCC2CCN(c3ncc(C(=O)NO)cn3)CC2)c2ccccc21 [quisinostat]
In short: as §1

tipifarnib = compound: Cn1cncc1[C@@](N)(c1ccc(Cl)cc1)c1ccc2c(c1)c(-c1cccc(Cl)c1)cc(=O)n2C [tipifarnib]
In short: as §1

[4] = compound: NC(=O)Nc1cc(-c2cccc(F)c2)sc1C(=O)N[C@H]1CCCNC1
In short: as §1

[5] = compound: NC1(c2ccc(-c3nc4ccn5c(=O)[nH]nc5c4cc3-c3ccccc3)cc2)CCC1
In short: as §1

[6] = compound: NCC(=O)Nc1ccc(-n2nc(C(F)(F)F)cc2-c2ccc3c(ccc4ccccc43)c2)cc1
In short: as §1

vorinostat = compound: O=C(CCCCCCC(=O)Nc1ccccc1)NO [vorinostat]
In short: as §1

silmitasertib = compound: O=C(O)c1ccc2c(c1)nc(Nc1cccc(Cl)c1)c1ccncc12 [silmitasertib]
In short: as §1

[7] = compound: O=C1NC(=O)C(c2cnc3ccccn23)=C1c1cn2c3c(cc(F)cc13)CN(C(=O)N1CCCCC1)CC2
In short: as §1

entospletinib = compound: c1cn2cc(-c3ccc4cn[nH]c4c3)nc(Nc3ccc(N4CCOCC4)cc3)c2n1 [entospletinib]
In short: as §1

[8] = compound: NC(=O)c1cnc(N[C@@H]2CCCC[C@@H]2N)nc1Nc1cccc(-n2nccn2)c1
In short: as §1

Measured: log2 fold change

IGHA1 (UniProt P01876)
inactive: nilotinib 0.017 | [1] -0.033 | dasatinib 0.175 | [2] 0.002 | [3] 0.886 | quisinostat 0.568 | tipifarnib -0.129 | [4] -0.11 | [5] 1.1 | [6] -0.035 | vorinostat 0.033 | silmitasertib -0.01 | [7] 0.297 | entospletinib -0.108

IFRD1 (UniProt O00458)
inactive: nilotinib 0.01 | [1] -0.007 | dasatinib 0.036 | [2] -0.018 | [3] 0.042 | quisinostat -0.005 | tipifarnib 0.005 | [4] 0.002 | [8] -0.016 | [5] -0.026 | [6] -0.143 | vorinostat 0.057 | silmitasertib 0.084 | [7] -0.043 | entospletinib -0.001

IMMP1L (UniProt Q96LU5)
inactive: nilotinib -0.011 | [1] 0.012 | dasatinib 0.008 | [2] 0.016 | [3] -0.033 | quisinostat -0.066 | tipifarnib -0.028 | [4] 0.008 | [8] 0.016 | [5] -0.065 | vorinostat 0.067 | silmitasertib 0.039 | [7] 0.022 | entospletinib 0.001

ICE2 (UniProt Q659A1)
inactive: nilotinib -0.017 | [1] -0.004 | dasatinib -0.018 | [2] 0.036 | [3] 0.024 | quisinostat -0.067 | tipifarnib -0.043 | [4] 0.026 | [8] 0.043 | [5] 0.009 | [6] -0.032 | vorinostat -0.178 | silmitasertib 0.051 | [7] -0.008 | entospletinib -0.217

IFT88 (UniProt Q13099)
inactive: nilotinib 0.163 | [1] -0.03 | [2] 0.193 | quisinostat -0.292 | tipifarnib -0.431 | [4] 0.089 | [7] 0.021

ING5 (UniProt Q8WYH8)
inactive: nilotinib 0.05 | [1] -0.107 | dasatinib -0.165 | [2] 0.167 | [3] -0.035 | tipifarnib 0.016 | [8] 0.116 | [5] -0.144 | vorinostat 0.088 | silmitasertib -0.034 | entospletinib -0.09

IFT172 (UniProt Q9UG01)
inactive: nilotinib -0.081 | [1] 0.156 | dasatinib -0.269 | [2] -0.12 | [3] 0.231 | tipifarnib -0.068 | [5] 0.004 | [6] 0.068 | vorinostat -0.42 | silmitasertib -0.1

IFT52 (UniProt Q9Y366)
inactive: nilotinib 0.049 | [1] 0.02 | [2] -0.017 | quisinostat -0.023 | tipifarnib -0.017 | [4] -0.007 | [5] -0.006 | vorinostat 0.219 | silmitasertib -0.157 | [7] -0.186

IGKC (UniProt P01834)
inactive: nilotinib 0.008 | [1] 0.007 | dasatinib 0.023 | [2] 0.015 | [3] 0.35 | tipifarnib -0.192 | [8] -0.124 | [5] 0.762 | vorinostat 0.119 | silmitasertib 0.008 | entospletinib -0.303

ILF3 (UniProt Q12906)
inactive: dasatinib 0.028 | [3] -0.112 | quisinostat -0.033 | [4] -0.001 | [8] -0.097 | [5] -0.047 | [6] 0.081 | vorinostat -0.005 | silmitasertib -0.259 | [7] -0.044 | entospletinib 0.144

HUWE1 (UniProt H0Y659)
inactive: dasatinib -0.088 | [3] 0.171

IGKV3D-7, A0A0C4DH55
inactive: nilotinib 0.126 | [1] -0.151 | [2] -0.221 | tipifarnib -0.235 | [5] 0.336 | vorinostat -0.145 | silmitasertib -0.113

IL17RA (UniProt Q96F46)
inactive: dasatinib 0.078 | [3] -0.003 | quisinostat 0.282 | [4] 0.039 | [8] -0.129 | [7] 0.083 | entospletinib 0.079

IFT43 (UniProt Q96FT9)
inactive: dasatinib 0.017 | [3] -0.016 | quisinostat -0.097 | [4] -0.036 | [5] -0.303 | [6] -0.198 | vorinostat 0.022 | silmitasertib 0.249 | [7] 0.098

Copied from above (2 entries):
IGKV3D-7, A0A0C4DH55
inactive: nilotinib 0.126 | [1] -0.151 | [2] -0.221 | tipifarnib -0.235 | [5] 0.336 | vorinostat -0.145 | silmitasertib -0.113

IL17RA (UniProt Q96F46)
inactive: dasatinib 0.078 | [3] -0.003 | quisinostat 0.282 | [4] 0.039 | [8] -0.129 | [7] 0.083 | entospletinib 0.079

Next part

IFNAR1 (UniProt P17181)
inactive: dasatinib -0.044 | [3] 0.092 | quisinostat -0.094 | [4] 0.084 | [7] 0.046

IGHM isoform 2 (UniProt P01871)
inactive: nilotinib 0.147 | [1] 0.227 | dasatinib -1.6 | [2] -0.064 | [3] 0.407 | tipifarnib -0.106

INHBE (UniProt P58166)
inactive: nilotinib 0.032 | [1] -0.073 | [2] 0.121 | quisinostat -0.096 | tipifarnib 0.071 | [4] -0.098 | [5] 0.027 | vorinostat -0.053 | silmitasertib 0.009 | [7] -0.284

IGHG3 (UniProt P01860)
inactive: nilotinib 0.355 | [1] -0.106 | [2] 0 | tipifarnib -0.344 | [8] 0.265

IKZF4 (UniProt Q9H2S9)
inactive: nilotinib -0.134 | [1] 0.073 | [2] -0.112 | quisinostat -0.079 | tipifarnib 0.081 | [4] 0.013 | [8] -0.071 | [7] -0.032 | entospletinib -0.095

IER3IP1 (UniProt Q9Y5U9)
inactive: nilotinib -0.062 | [1] 0.073 | dasatinib 0.009 | [2] 0.057 | [3] 0.007 | tipifarnib -0.279 | [8] 0.041 | [5] -0.129 | [6] 0.015 | vorinostat 0.091 | silmitasertib 0.007 | entospletinib -0.007

INPP5E (UniProt Q9NRR6)
inactive: nilotinib 0.041 | [1] -0.051 | [2] -0.125 | quisinostat -0.134 | tipifarnib -0.089 | [4] 0.194 | [5] -0.181 | vorinostat 0.272 | silmitasertib -0.089 | [7] 0.112

INPP5F (UniProt Q9Y2H2)
inactive: nilotinib 0.143 | [1] -0.068 | dasatinib 0.01 | [2] 0.603 | [3] -0.146 | tipifarnib -0.014 | [8] 0.075 | [5] -0.211 | [6] 0.37 | vorinostat -0.284 | silmitasertib -0.115 | entospletinib 0.029

HSPBP1 (UniProt K7EMM7)
inactive: dasatinib -0.073 | [3] 0.061

HTD2 (UniProt P86397)
inactive: nilotinib 0.195 | [1] -0.07 | [2] 0.079 | quisinostat 0.021 | tipifarnib -0.228 | [4] 0.015 | [8] -0.064 | [6] 0.02 | [7] 0.012 | entospletinib 0.038

IFT46 isoform 2 (UniProt Q9NQC8)
inactive: nilotinib 0.043 | [1] -0.044 | [2] -0.271 | quisinostat 0.015 | tipifarnib -0.263 | [4] -0.023 | [8] 0.147 | [6] 0.068 | [7] 0.103 | entospletinib 0.002

HTRA3 (UniProt P83110)
inactive: nilotinib -0.172 | [1] 0.021 | [2] -0.184 | tipifarnib 0

IFIT3 (UniProt O14879)
inactive: dasatinib -0.033 | [3] -0.079 | quisinostat -0.072 | [4] -0.083 | [5] -0.154 | vorinostat -0.08 | silmitasertib -0.12 | [7] 0.157 | entospletinib 0.121

IGLC3 (UniProt P0DOY3)
inactive: nilotinib 0.009 | [1] -0.095 | dasatinib -0.234 | [2] 0.004 | [3] 0.607 | tipifarnib -0.217 | [5] 0.863 | vorinostat 0.056 | silmitasertib -0.035

HYKK (UniProt A2RU49)
inactive: nilotinib 0.067 | [1] 0.071 | [2] 0.075 | quisinostat -0.051 | tipifarnib -0.123 | [4] 0.122 | [8] -0.033 | [5] -0.057 | vorinostat -0.235 | silmitasertib 0.158 | [7] -0.023 | entospletinib -0.09

IMPA2 (UniProt O14732)
inactive: dasatinib -0.004 | [3] 0.084 | quisinostat -0.002 | [4] -0.026 | [8] 0.011 | [5] 0.027 | [6] -0.166 | vorinostat 0 | silmitasertib 0.008 | [7] -0.062 | entospletinib -0.01

IGKV3-20 (UniProt P01619)
inactive: dasatinib -0.873 | [3] 0.461

ICMT (UniProt O60725)
inactive: nilotinib 0.076 | [1] 0.024 | dasatinib 0.03 | [2] 0.034 | [3] 0.069 | quisinostat 0 | tipifarnib -0.058 | [4] -0.041 | [6] -0.055 | [7] 0.11 | entospletinib -0.016

INCENP (UniProt Q9NQS7)
inactive: dasatinib -0.134 | [3] 0.106

ICE1 (UniProt Q9Y2F5)
inactive: nilotinib 0.045 | [1] -0.1 | dasatinib -0.064 | [2] 0.011 | [3] -0.066 | quisinostat -0.075 | tipifarnib -0.018 | [4] -0.143 | [7] 0.015 | entospletinib -0.184

ING1 (UniProt Q9UK53)
inactive: dasatinib 0.1 | [3] 0.069 | quisinostat -0.009 | [4] 0.017 | [5] 0.006 | vorinostat 0.144 | silmitasertib -0.081 | [7] 0.073

INO80C isoform 4 (UniProt Q6PI98)
inactive: nilotinib 0.208 | [1] -0.213 | dasatinib 0.04 | [2] -0.046 | [3] -0.037 | tipifarnib 0.073 | [8] -0.129

IFRD2 isoform 2 (UniProt Q12894)
inactive: dasatinib 0.021 | [3] -0.014 | quisinostat -0.002 | [4] 0.075 | [8] 0.004 | [5] -0.004 | [6] 0.038 | vorinostat 0.188 | silmitasertib -0.043 | [7] 0.037 | entospletinib 0.004
